In patent US20210122763A1, “OGA INHIBITOR COMPOUNDS” (Janssen Pharmaceutica NV, priority 2018, published 2021):
Read-outs that look alike come from different tables or passages of the source. The match of structure and compound is tentative.

Sequences of proteins named here, by UniProt entry; tags and fusion partners are left off.
UniProt O60502, whole entry: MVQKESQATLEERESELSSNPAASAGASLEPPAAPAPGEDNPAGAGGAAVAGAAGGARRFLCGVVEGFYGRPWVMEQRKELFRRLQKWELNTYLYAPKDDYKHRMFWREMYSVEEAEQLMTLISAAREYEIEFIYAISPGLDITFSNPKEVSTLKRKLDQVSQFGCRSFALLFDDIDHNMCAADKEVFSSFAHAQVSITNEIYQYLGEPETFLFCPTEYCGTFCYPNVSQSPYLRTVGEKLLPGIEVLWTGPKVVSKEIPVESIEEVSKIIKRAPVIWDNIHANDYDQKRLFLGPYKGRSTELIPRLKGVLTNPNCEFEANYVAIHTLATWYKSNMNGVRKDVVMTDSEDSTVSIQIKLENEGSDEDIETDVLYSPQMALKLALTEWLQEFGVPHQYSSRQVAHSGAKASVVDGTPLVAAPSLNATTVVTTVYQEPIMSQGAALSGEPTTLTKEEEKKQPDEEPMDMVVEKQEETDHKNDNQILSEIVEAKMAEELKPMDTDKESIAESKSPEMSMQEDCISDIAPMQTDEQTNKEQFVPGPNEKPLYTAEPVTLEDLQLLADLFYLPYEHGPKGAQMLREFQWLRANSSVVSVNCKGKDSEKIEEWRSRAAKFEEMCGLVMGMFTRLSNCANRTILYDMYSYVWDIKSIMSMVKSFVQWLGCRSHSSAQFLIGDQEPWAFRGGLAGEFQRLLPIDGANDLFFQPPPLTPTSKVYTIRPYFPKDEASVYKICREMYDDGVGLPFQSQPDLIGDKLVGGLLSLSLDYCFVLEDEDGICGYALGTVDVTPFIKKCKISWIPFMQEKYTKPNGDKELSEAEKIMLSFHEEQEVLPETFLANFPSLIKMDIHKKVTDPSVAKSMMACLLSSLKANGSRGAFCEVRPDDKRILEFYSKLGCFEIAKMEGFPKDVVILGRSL

What was measured:
[1] = target: recombinant human Meningioma Expressed Antigen 5 (MGEA5), also referred to as O-GlcNAcase (OGA) (Homo sapiens, UniProt O60502); assay: OGA biochemical assay (inhibition of FM-GlcNAc hydrolysis, fluorescence)
From the text: The assay is based on the inhibition of the hydrolysis of fluorescein mono-B-D-N-Acetyl-Glucosamine (FM-GcNAc) (Mariappa et al. 2015, Biochem J470:255) by the recombinant human Meningioma Expressed Antigen 5 (MGEA5), also referred to as O-GlcNAcase (OGA). The hydrolysis FM-GlcNAc (Marker Gene technologies, cat #M1485) results in the formation of B-D-N-glucosamineacetate and fluorescein. The fluorescence of the latter can be measured at excitation wavelength 485 nm and emission wavelength 538 nm. An increase in enzyme activity results in anincrease in fluorescence signal. Full length OGA enzyme was purchased at OriGene (cat #TP322411). The enzyme was stored in 25 mM Tris.HCl, pH 7.3, 100 mM glycine, 10% glycerol at −20° C. Thiamet G and GlcNAcStatin were tested as reference compounds (Yuzwa et al. 2008 Nature Chemical Biology 4:483; Yuzwa et al. 2012 Nature Chemical Biology 8:393). The assay was performed in 200 mM Citrate/phosphate buffer supplemented with 0.005% Tween-20. 35.6 g Na2HPO4 2H2O (Sigma, #C0759) were dissolved in 1 L water to obtain a 200 mM solution. 19.2 g citric acid (Merck, #1.06580) was dissolved in 1 L water to obtain a 100 mM solution. pH of the sodiumphosphate solution was adjusted with the citric acid solution to 7.2. The buffer to stop the reaction consists of a 500 mM Carbonate buffer, pH 11.0. 734 mg FM-GlcNAc were dissolved in 5.48 mL DMSO to obtain a 250 mM solution and was stored at −20° C. OGA was used at a 2 nM concentration and FM-GcNAc at a 100 uM final concentration. Dilutions were prepared in assay buffer.
50 nl of a compound dissolved in DMSO was dispensed on Black Proxiplate™ 384 Plus Assay plates (Perkin Elmer, #6008269) and 3 μl fl-OGA enzyme mix added subsequently. Plates were pre-incubated for 60 min at room temperature and then 2 μl FM-GlcNAc substrate mix added.
Plates were briefly centrifuged for 1 min at 1000 rpm and incubate at room temperature for 6 h. To stop the reaction 5 μl STOP buffer were added and plates centrifuge again 1 min at 1000 rpm. Fluorescence was quantified in the Thermo Scientific Fluoroskan Ascent or the PerkinElmer EnVision with excitation wavelength 485 nm and emission wavelength 538 nm.
For analysis a best-fit curve is fitted by a minimum sum of squares method. From this an IC50 value and Hill coefficient was obtained. High control (no inhibitor) and low control (saturating concentrations of standard inhibitor) were used to define the minimum and maximum values.

OGA = OGA (Homo sapiens, UniProt O60502); assay: OGA cellular assay (ICC detection of O-GlcNAcylated proteins in HEK293 cells inducible for P301L mutant human Tau); conditions: 6 hours incubation; for Cellular Emax (%): maximum = Thiamet G 200 uM
Description: HEK293 cells inducible for P301L mutant human Tau (isoform 2N4R) were established at Janssen. Thiamet-G was used for both plate validation (high control) and as reference compound (reference EC50 assay validation). OGA inhibition is evaluated through the immunocytochemical (ICC) detection of O-GlcNAcylated proteins by the use of a monoclonal antibody (CTD110.6; Cell Signaling, #9875) detecting 0-GlcNAcylated residues as previously described (Dorfmueller et al. 2010 Chemistry & biology, 17:1250). Inhibition of OGA will result in an increase of 0-GlcNAcylated protein levels resulting in an increased signal in the experiment. Cell nuclei are stained with Hoechst to give a cell culture quality control and a rough estimate of immediate compounds toxicity, if any. ICC pictures are imaged with a Perkin Elmer Opera Phenix plate microscope and quantified with the provided software Perkin Elmer Harmony 4.1.
Cells were propagated in DMEM high Glucose (Sigma, #D5796) following standard procedures. 2 days before the cell assay cells are split, counted and seeded in Poly-D-Lysine (PDL) coated 96-wells (Greiner, #655946) plate at a cell density of 12,000 cells per cm^2 (4,000 cells per well) in 100p of Assay Medium (Low Glucose medium is used to reduce basal levels of GlcNAcylation) (Park et al. 2014 The Journal of biological chemistry 289:13519). At the day of compound test medium from assay plates was removed and replenished with 90 μl of fresh Assay Medium. 10 μl of compounds at a 10 fold final concentration were added to the wells. Plates were centrifuged shortly before incubation in the cell incubator for 6 hours. DMSO concentration was set to 0.2%. Medium is discarded by applying vacuum. For staining of cells medium was removed and cells washed once with 100 μl D-PBS (Sigma, #D8537). From next step onwards unless other stated assay volume was always 50p and incubation was performed without agitation and at room temperature. Cells were fixed in 50 μl of a 4% paraformaldehyde (PFA, Alpha aesar, #043368) PBS solution for 15 minutes at room temperature. […] Before analysis samples were washed 2 times manually for 5 minutes in ICC base buffer.
Imaging is performed using Perkin Elmer Phenix Opera using a water 20× objective and recording 9 fields per well. Intensity readout at 488 nm is used as a measure of O-GlcNAcylation level of total proteins in wells. To assess potential toxicity of compounds nuclei were counted using the Hoechst staining. IC50-values are calculated using parametric non-linear regression model fitting. As a maximum inhibition Thiamet G at a 200 uM concentration is present on each plate. In addition, a concentration response of Thiamet G is calculated on each plate.

Cc1nc(OC2CCN(C(C)c3ccc4c(n3)OCCO4)CC2)ccc1C#N (stereo not shown)
Enzymatic Emax (%) [1]: 102% | Enzymatic hOGA; pIC50 [1]: 7.4 | Cellular hOGA; pEC50 (OGA): <6 | Cellular Emax (%) (OGA): 47%

Cc1cc(OC2CCN(C(C)c3ccc4sc(C)nc4n3)CC2)nc(C)n1 (stereo not shown)
Enzymatic Emax (%) [1]: 100% | Enzymatic hOGA; pIC50 [1]: 7.0 | Cellular hOGA; pEC50 (OGA): <6 | Cellular Emax (%) (OGA): 37%

Cc1cc(OC2CCN(C(C)c3nc4c(cc3F)CCCO4)CC2)cc(C)n1 (stereo not shown)
Enzymatic Emax (%) ([1]; tested form: 2HCl): 97% | Enzymatic hOGA; pIC50 ([1]; tested form: 2HCl): 7.4 | Cellular Emax (%) (OGA; tested form: 2HCl): 89% | Cellular hOGA; pEC50 (OGA; tested form: 2HCl): 6.9

Cc1cc(OC2CCN(C(C)c3ccc4c(n3)OCCC4)CC2)cc(C)n1 (stereo not shown)
Enzymatic Emax (%) ([1]; tested form: 2HCl): 98% | Enzymatic hOGA; pIC50 ([1]; tested form: 2HCl): 6.5 | Cellular Emax (%) (OGA; tested form: 2HCl): 74% | Cellular hOGA; pEC50 (OGA; tested form: 2HCl): 6.4
